Data from patent publication US20260234269A1.
Results are given in words; binding and its absence hold for the method and conditions named. In cells and extracts the contact can be indirect. Some entries that bind do so weakly or less than the wild type.

Sequences of proteins named here, by UniProt entry; tags and fusion partners are left off. A change or cut given only in a name is not applied to a line headed by its entry.
UniProt P17931: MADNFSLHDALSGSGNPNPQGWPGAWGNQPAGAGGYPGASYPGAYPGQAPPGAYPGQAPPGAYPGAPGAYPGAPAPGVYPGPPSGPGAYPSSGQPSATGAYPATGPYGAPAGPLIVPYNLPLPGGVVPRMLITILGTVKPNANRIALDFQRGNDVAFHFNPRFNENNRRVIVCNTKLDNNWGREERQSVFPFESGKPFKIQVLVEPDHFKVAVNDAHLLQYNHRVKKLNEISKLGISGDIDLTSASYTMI
UniProt Q8TDQ0: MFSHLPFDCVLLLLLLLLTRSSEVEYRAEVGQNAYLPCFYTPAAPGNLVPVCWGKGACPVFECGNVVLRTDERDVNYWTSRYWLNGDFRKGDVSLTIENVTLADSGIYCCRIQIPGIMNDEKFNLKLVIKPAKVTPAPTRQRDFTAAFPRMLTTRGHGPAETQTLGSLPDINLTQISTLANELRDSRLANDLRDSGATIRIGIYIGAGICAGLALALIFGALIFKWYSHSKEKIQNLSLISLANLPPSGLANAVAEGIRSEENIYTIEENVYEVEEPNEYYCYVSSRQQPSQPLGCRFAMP

Biological target: Flag-tagged human Gal3 expressed in 293T cells (human) (UniProt P17931)
Test: pull-down, Fc protein coated plate, protein G beads, anti-Flag blot

With “human TIM-3 Fc (hTIM-3 extracellular domain fused with the Fc portion of hIgG) (from UniProt Q8TDQ0 22-202) (Fc fusion)” the binding was “binds”.
